The record followed here is PMC12137164.

Sequences of proteins named here, by UniProt entry; tags and fusion partners are left off.
UniProt Q9UKL0: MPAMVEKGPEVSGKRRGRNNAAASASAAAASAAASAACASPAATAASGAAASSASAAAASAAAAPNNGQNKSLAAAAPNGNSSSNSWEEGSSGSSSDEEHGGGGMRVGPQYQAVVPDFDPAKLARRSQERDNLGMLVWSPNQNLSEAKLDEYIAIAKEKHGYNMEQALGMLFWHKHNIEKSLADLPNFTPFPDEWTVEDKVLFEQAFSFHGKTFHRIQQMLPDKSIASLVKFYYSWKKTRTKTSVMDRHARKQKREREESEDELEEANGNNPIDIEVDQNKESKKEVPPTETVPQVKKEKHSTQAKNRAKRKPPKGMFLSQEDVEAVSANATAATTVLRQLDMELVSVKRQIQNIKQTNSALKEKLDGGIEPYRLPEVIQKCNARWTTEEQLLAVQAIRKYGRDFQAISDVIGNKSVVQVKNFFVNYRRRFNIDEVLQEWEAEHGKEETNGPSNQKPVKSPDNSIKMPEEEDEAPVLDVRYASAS

The target of the test is T1, hexokinase domain-containing protein 1 (HKDC1) (human (endogenous in SW620 and DLD1)) (UniProt Q2TB90).
T1 sequence: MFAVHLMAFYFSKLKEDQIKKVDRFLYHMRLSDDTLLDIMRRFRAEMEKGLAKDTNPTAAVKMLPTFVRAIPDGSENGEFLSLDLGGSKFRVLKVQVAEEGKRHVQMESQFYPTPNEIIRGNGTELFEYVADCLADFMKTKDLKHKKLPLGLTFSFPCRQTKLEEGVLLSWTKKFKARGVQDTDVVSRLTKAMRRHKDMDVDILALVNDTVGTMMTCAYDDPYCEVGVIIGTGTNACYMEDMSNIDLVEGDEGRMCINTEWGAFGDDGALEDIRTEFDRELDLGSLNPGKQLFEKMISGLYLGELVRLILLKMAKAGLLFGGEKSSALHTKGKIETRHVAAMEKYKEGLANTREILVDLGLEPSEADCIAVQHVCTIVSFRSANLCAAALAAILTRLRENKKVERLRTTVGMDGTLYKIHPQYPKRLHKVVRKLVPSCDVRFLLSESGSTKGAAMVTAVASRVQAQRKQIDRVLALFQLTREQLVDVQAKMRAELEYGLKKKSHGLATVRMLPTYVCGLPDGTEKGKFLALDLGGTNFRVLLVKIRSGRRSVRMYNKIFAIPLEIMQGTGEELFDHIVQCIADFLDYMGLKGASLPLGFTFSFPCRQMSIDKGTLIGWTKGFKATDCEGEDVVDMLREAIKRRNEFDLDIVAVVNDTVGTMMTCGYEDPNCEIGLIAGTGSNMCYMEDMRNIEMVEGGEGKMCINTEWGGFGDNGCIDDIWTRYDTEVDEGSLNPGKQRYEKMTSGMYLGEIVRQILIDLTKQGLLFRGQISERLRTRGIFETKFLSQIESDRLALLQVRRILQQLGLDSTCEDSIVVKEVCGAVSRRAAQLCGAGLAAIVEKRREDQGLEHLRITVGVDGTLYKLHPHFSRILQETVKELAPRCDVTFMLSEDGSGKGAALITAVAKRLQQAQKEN
The test can be described thus: affinity purification with mass spectrometry; Co-IP followed by mass spectrometry to find partners of HKDC1; cell line and precipitating antibody not stated for this experiment.

Results are given in words; binding and its absence hold for the method and conditions named. In cells and extracts the contact can be indirect. These calls come from enrichment with a bait or labelling near it, and not all partners need be listed.

Turning to “REST Corepressor 1 (RCOR1) (from UniProt Q9UKL0 1-485)”, the binding result was “binds”.
